Reference: article doi:10.1101/2022.01.11.475884 (bioRxiv, 2022)
These are yes or no findings as the source states them, for the method shown. Binding seen in cells or lysates may run through a third protein. Binding can be weak; no strength is given. Sequences can lack the tags named with a protein.

Molecular target: T1, Flag-TAK1 (UniProt O43318)
T1 sequence: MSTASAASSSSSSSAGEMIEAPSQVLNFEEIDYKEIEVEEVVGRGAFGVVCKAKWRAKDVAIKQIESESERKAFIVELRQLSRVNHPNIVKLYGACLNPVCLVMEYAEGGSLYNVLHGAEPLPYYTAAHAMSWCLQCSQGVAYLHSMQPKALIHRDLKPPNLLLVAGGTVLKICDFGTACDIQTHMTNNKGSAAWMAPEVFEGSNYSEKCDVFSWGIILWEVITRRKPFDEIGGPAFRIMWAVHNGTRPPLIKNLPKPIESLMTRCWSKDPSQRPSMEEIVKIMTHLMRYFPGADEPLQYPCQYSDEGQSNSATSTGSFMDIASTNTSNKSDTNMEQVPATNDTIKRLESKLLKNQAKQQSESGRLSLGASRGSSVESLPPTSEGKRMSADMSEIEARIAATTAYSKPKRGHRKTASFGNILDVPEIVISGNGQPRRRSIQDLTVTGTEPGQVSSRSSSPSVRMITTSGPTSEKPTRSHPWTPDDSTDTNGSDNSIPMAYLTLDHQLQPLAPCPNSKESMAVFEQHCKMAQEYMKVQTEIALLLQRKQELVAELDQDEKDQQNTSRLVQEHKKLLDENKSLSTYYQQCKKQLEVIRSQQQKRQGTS
Experiment: co-IP

## Myc-Mfn2^ΔCT (domain or fragment)
  binding: binds
